# According to PubChem BioAssay AID1508600 (Functional Genomics Laboratory (NCATS/FGL), 2020):
# Out of some 53,000 sequences screened, about 3,700 (7%) were called active.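 Rule for the calls: active = gene knockdowns whose robust z-score for IL-1 alpha signal is at least 2 or at most -2, so actives lie on both sides; inactive = the rest.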 Some of the results follow.
# Assay: Components of the Cytosolic LPS Sensing Pathway: Gene Identification via Genome-wide siRNA Screen;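 note: robust z of the log signal after scaling to non-targeting control siRNA wells of the plate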
# Conditions: RAW264.7 macrophages, IL-1a HTRF, actives lie on both sides, screened at 100 nM (by protocol), cells primed 5 h with Pam3CSK4 first
# Method in brief: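 Knockdown: 100 nM siRNA, 48h, RAW264.7. Stimulation: Pam3CSK4 5 h, then LipidA via TransIT-TKO 24 h. Output: supernatant IL-1a HTRF, negative-control-normalized, log robust z-score; viability by CellTiter-Glo.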
row,Sequence,z-score
1,GCUUAAGUGGAGGUCCCUUTT against Tmem151a,inactive: 0.0731
2,GGACACCUCCAAGAAGAGUTT against Ap1s1,inactive: 0.389
3,GCAUUGGAUACCCUCAGUATT against Krtap19-2,inactive: -0.521
4,GGUUUUUCUAGCUACAUUATT against Slc17a5,inactive: 0.763
5,CCAAGGCUUGUGGCCUUAUTT against Comtd1,inactive: -0.457
6,GCACUAUGAACGGAAGUUGTT against Map3k12,inactive: -0.807
7,GGCAGUGAUAUACAGGUGGTT against Ptpn14,inactive: -0.221
8,GCCGAGAAUUAUAUUUAACTT against Itga2,inactive: 0.45
9,GGAGAGCAUUCCUUGGAUUTT against Rxfp2,inactive: 1.35
10,GGGAAGGAACAGUAAAUAATT against Zfp33b,inactive: -1.07
11,GGAGUUCAUGCAAGUCCGATT against Tmem138,inactive: 1.01
12,GCAAUCUGUCCUUCUGUGATT against Olfr1133,inactive: -0.818
13,GCAAUGACUUGAACUAUUUTT against Dipk2b,inactive: 0.163
14,GCUACAAGAGAACAAUAGCTT against Lcn2,inactive: -0.59
15,GGUUCUGAUGAGUCUCAUGTT against Mmadhc,inactive: -1.51
16,GGCUUAAGGACAAGAAGAUTT against Gsn,inactive: -0.747
17,GGAGAAAGAAGCCUCUCCATT against Mageb18,inactive: 1.11
18,GGACAGAAGUGCAACAUCUTT against Dio1,inactive: -0.0837
19,GGAAUCCUCACCAGCUUAATT against Slc50a1,inactive: -1.23
20,GGGAAGGAUCACGAGGUUGTT against Dtwd1,inactive: 0.964
21,GGAACAGUUACUUGAGAGUTT against Zfp786,inactive: 0.759
22,GAGAGUGAUCACUUAGGCATT against Gm10319,inactive: -0.00379

# At a glance, some entries already given.
row,Sequence,z-score
9,GGAGAGCAUUCCUUGGAUUTT against Rxfp2,inactive: 1.35
10,GGGAAGGAACAGUAAAUAATT against Zfp33b,inactive: -1.07
11,GGAGUUCAUGCAAGUCCGATT against Tmem138,inactive: 1.01
12,GCAAUCUGUCCUUCUGUGATT against Olfr1133,inactive: -0.818
13,GCAAUGACUUGAACUAUUUTT against Dipk2b,inactive: 0.163
14,GCUACAAGAGAACAAUAGCTT against Lcn2,inactive: -0.59

# Further entries follow:

row,Sequence,z-score
1,CCGCGUGUAUAAGUUGGUGTT against Mrpl9,inactive: 1.23
2,GCACUCAUACCUUAAGCUUTT against Clec2g,inactive: 0.786
3,GGUUGGACGUGGUGAAGAATT against Chtf18,active: -2.24
4,GCCACUGCUAUAUUCGCAUTT against Slc35d3,inactive: 0.0899
5,GGAAGUCAGACAGAUUUAATT against Prss33,active: 2.69
6,GGGUCAGAUGCAGACUGUUTT against Fam110c,inactive: 0.739
7,CCGGAGAGAAGGUCUAAUGTT against Galnt2,inactive: 0.109
8,CGUAAAUAUGCCCGUAGUUTT against Bpifa1,inactive: 0.31
9,GCUGGAUUUGGACUCUUAGTT against Vmn1r16,inactive: 1.1
10,GGUAACUGUGGAGAACUUUTT against Pigk,inactive: 0.573
11,GGAGAUUUCUGAAACUAGATT against Tiaf2,active: -2.09
12,GGAGUGAAGAGAAAUGAGATT against Lat2,inactive: -1.81
13,GCUUAUCAAAACAUCGUGATT against Zfp536,inactive: 1.05
14,GGAGAUGAUGAUUUACAAATT against Spred1,inactive: 0.723
15,GGAGAUGGGUGUCUUGGAGTT against Myo5c,inactive: 0.587
16,GGAUACAGUCAGACUCUUGTT against Blmh,inactive: -0.187
17,GAUUUUCCUCUACUGUCCUTT against U90926,inactive: -0.532
18,GGUUCUGAGGACAUGUGCATT against Asb18,inactive: 0.603
19,GGUCAUUCACGUCUGCGUUTT against Kcnj8,inactive: -0.292
20,GGUGAAGUACAGAAUAUGCTT against Sycp3,inactive: 0.0795
21,GGGACUCUUCUACGAGUUUTT against Lims2,inactive: 0.836
22,GCCGUUAAACAGUUCUCCCTT against Cyb561a3,inactive: -0.455

row,Sequence,z-score
1,GGAGAAAUACAACUGAAAATT against Pcdhb7,inactive: -0.0269
2,CGGGUUUCAUUAUUAUUCCTT against Foxa1,inactive: -0.352
3,GGUUUUUGCCAAACUCUUUTT against Wbp1l,inactive: 1.54
4,GGUGCAGAAUCUCUCAUUGTT against Mrpl30,active: -2.14
5,GGCCGAACCUGUCAAAGAATT against Hif3a,inactive: 0.615
6,AUGGAUAGGGAUUAAGAGCTT against Scn4b,inactive: 1
7,GCUGUGGAGUCAAGAACAGTT against Zfp317,inactive: -0.31
8,GAGACAGAUAGGCAGAAAATT against Olfr478,inactive: -1.02
9,GCUUCCUAACCAGGUUUGATT against 4430402I18Rik,active: 2.1
10,GGAGGAGAGGUACAAACGGTT against Cxxc1,inactive: -1.04
11,GGCUUACAUACUUGAAUUGTT against 9430015G10Rik,inactive: 0.873
12,GGAGGUCUGUGCUUACUUGTT against Fnbp4,inactive: 1.72
13,CCAAUUGAAACUCUUUUCCTT against Thada,inactive: 0.562
14,GGCAAAAACCAUAAACUAGTT against Clcn4,inactive: -0.27
15,GGGCGGUUCAAAAGGUCAGTT against Cacnb1,active: 2.27
16,GGCCUCAGUUGGACUUGAATT against Scn10a,inactive: -0.352
17,GGAAAAAAAAGACCUAGGATT against Pik3ip1,inactive: -0.475
18,GCUUUAUCACCGAUGUCGATT against Slc29a4,inactive: -0.782
19,CGAUGGCCUGAAUCACUUGTT against Hbb-b1,inactive: -0.122
20,GGCUAUCAUGAACUUGGAUTT against Gpd2,inactive: -0.57
21,GGGAUUUGGUUUCGUAACUTT against Rbfox1,inactive: -1.08
22,GGGCUACAUAGGCUUAGACTT against Ptpru,inactive: 0.064

row,Sequence,z-score
1,GGACACACAUCAUUGCCCATT against Olfr649,inactive: -1.65
2,GGAGGAGCUAUACAAAGCCTT against Rab3il1,inactive: -0.918
3,GGUUAAGAGCGUACGUUUUTT against Tmem204,inactive: 1.46
4,GGACAUUAAAAGUCUCUUATT against Kbtbd3,inactive: 0.292
5,GGUAAAGAUCGACCUUUUGTT against Stx8,inactive: -0.108
6,CGUGAUUUCAGUGAGGGUGTT against Tarsl2,inactive: 0.996
7,GCCCUAGUGUCUGAAAAAATT against Sfrp5,inactive: 0.864
8,GGAAAAAUGACUUUUUGUGTT against Zfp799,inactive: 0.249
9,UCGAGGAGUAGUAGCUUAATT against Acsl5,inactive: -0.537
10,GCAGCAUGGCAAAACCACATT against Zbtb12,inactive: -0.265
11,GGUUUCCACCAAACAAAACTT against Bmp3,inactive: 0.513
12,GCAAGUGGCUGAGUACUAATT against R74862,inactive: 1.05
13,CCAACACUACCAGAGAACGTT against Pfkfb1,inactive: -0.808
14,GGUGGAGACUGUGUCUAGUTT against Agbl5,inactive: 1.17
15,GGCUUAUUGUAGAAAAUCUTT against Srsf6,inactive: 0.103
16,CGGUAGCCAUAUUAAUAUCTT against Spink2,inactive: 0.417
17,GCCUCUUCGAACUCACUAUTT against St6galnac3,inactive: -0.807
18,CGAUGAAGCCGGAUUGAGATT against 1700010H22Rik,inactive: -0.0388
19,GGAAUAAGGAAGUAAAGAUTT against Olfr958,inactive: -1.18
20,GGGUUUUCACUCAAAAAAATT against Aup1,inactive: 0.127
21,GGGAUUCACUCUUCUUUAGTT against Sebox,inactive: 1.97
22,CGCGAUGGAACCAUAGUCATT against Nagpa,inactive: -1.3

row,Sequence,z-score
1,GCCAUUCUAAGAGGGCCUCTT against Stk10,inactive: -0.0026
2,GGGAAGAGCAGAAGUCUGUTT against Myod1,inactive: -0.239
3,GCUUGGAGAUGAACUCUAATT against Olfr533,inactive: 0.514
4,GGAUGUGGUUCAGAAGGCCTT against Stab1,inactive: -0.29
5,GCCGUUACCGAUCUCUCCATT against Zfp61,inactive: -0.176
6,GGAUGCUCUCUUAAAUGGATT against Gbp6,inactive: 0.327
7,GGAAGACAACUGUUGUGGCTT against Dagla,inactive: -0.54
8,GUUUAUCCACAUUGCCUUCTT against Olfr559,inactive: 0.431
9,GCCUGUAAAGGUGGCUAAGTT against Ciao3,inactive: 1.33
10,GCGUGGGAUGCUCAUUUUATT against Xkr7,inactive: 0.16
11,GCUUAAUGAACUGUCCUCUTT against Acan,inactive: 0.0581
12,GGCUCCGGUAAAGCUAUAUTT against Cacul1,inactive: 0.489
13,GGUUCGGGUAAAUAGUUCCTT against Nemp1,inactive: 0.541
14,GCAUACAGGAUUUACCGGCTT against Higd1b,inactive: -0.647
15,GCUUCAUCCACCAUUAAUCTT against Rabgap1,inactive: 0.833
16,GGAAGAAGAACCAAAGCCCTT against Sarnp,inactive: -1.09
17,GGUGAAAUGAGAAUACUUGTT against Erap1,inactive: 1.07
18,GCUUCUGCUAUAUGUGCAGTT against Rnf186,inactive: 1.44

# Retrieved one by one from the entries so far:
row,Sequence,z-score
12,GGCUCCGGUAAAGCUAUAUTT against Cacul1,inactive: 0.489
8,GUUUAUCCACAUUGCCUUCTT against Olfr559,inactive: 0.431
